From paper doi:10.1101/2021.03.31.437839
No constants are given. Whether binding was seen depends on the method and setting. In cells and extracts the contact can be indirect. These calls come from enrichment with a bait or labelling near it, and not all partners need be listed.

B1: PDIA6 (Protein Disulfide Isomerase Family A Member 6) (protein, UniProt Q15084 20-440)
chain: LYSSSDDVIELTPSNFNREVIQSDSLWLVEFYAPWCGHCQRLTPEWKKAATALKDVVKVGAVDADKHHSLGGQYGVQGFPTIKIFGSNKNRPEDYQGGRTGEAIVDAALSALRQLVKDRLGGRSGGYSSGKQGRSDSSSKKDVIELTDDSFDKNVLDSEDVWMVEFYAPWCGHCKNLEPEWAAAASEVKEQTKGKVKLAAVDATVNQVLASRYGIRGFPTIKIFQKGESPVDYDGGRTRSDIVSRALDLFSDNAPPPELLEIINEDIAKRTCEEHQLCVVAVLPHILDTGAAGRNSYLEVLLKLADKYKKKMWGWLWTEAGAQSELETALGIGGFGYPAMAAINARKMKFALLKGSFSEQGINEFLRELSFGRGSTAPVGGGAFPTIVEREPWDGRDGELPVEDDIDLSDVELDDLGKDEL

biological target: HA-JICD1 (JAG1 intracellular domain) (human) (UniProt P78504); assay: affinity purification with mass spectrometry

binding, binds:
DDX17 (DEAD-Box Helicase 17) found with JICD1 by mass spectrometry (from UniProt Q92841 1-729)
HSPA5 (Heat Shock Protein Family A Member 5) (from UniProt P11021 19-654)
B1
